Measured values as given in patent publication US8148371B2, “Adenine compound and use thereof” (Dainippon Sumitomo Pharma Co., Ltd., priority 2002, dated 2012).

Key:
plasma esterase = settings: rat plasma, test compound 10 μM, 37° C., 15 minutes
[1] = Metabolic stability on liver S9 of rat; settings: rat liver S9, test compound 1 μM, 37° C.

For CCCCOc1nc(N)c2[nH]c(=O)n(Cc3cccc(CC(=O)OC)c3)c2n1 [Example 19, 2-Butoxy-8-hydroxy-9-(3-methoxycarbonylmethylbenzyl)adenine], the Residual rate (plasma esterase) was 1% and the Residual rate [1] was 0%.
